Measurements reported in PubChem BioAssay AID1508597 (Cure First, 2020)

Screen: 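Genes whose silencing sensitises or protects ovarian cancer cells against rucaparib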 (primary screen)
Cell system: human ovarian carcinoma lines grown from tumours: OCI-P5x (papillary serous) and OCI-C5x (clear cell)
Reagents: siRNA pool against human genes, 1.25 pmol siRNA per well
Time to read-out: 72 h or 96 h, depending on the cell culture
Conditions: rucaparib 20 µM (about IC30) or vehicle, present until read-out
Detection: 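ATP luminescence measured at 72 or 96 h according to the culture, then normalised and expressed as percent viability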
Reading the numbers: viability, normalised: higher = more viable cells remaining
Call rule: 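a well counts as a hit if its normalised viability is under 80 percent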
Calls: active = viability under 80%; inactive = viability 80% or more
The deposit covers about 2,100 reagents; below is a part drawn at random. 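Calls flag viability under 80% in either arm, not effects specific to rucaparib; the reference for percent is not stated.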 Unmarked entries are inactive. No sequences are given here. The record does not give: the 100% reference.

For NFATC1 (nuclear factor of activated T cells 1), rucaparib or vehicle Rucaparib, cell line OCI-C5x (clear cell), technical replicate 1 the deposit lists viability, normalised (%) = 35.6 (active).
NFATC1 (nuclear factor of activated T cells 1), rucaparib or vehicle Rucaparib, cell line OCI-C5x (clear cell), technical replicate 2 showed viability, normalised (%) = 40.6 (active).
NFATC1 (nuclear factor of activated T cells 1), rucaparib or vehicle Rucaparib, cell line OCI-C5x (clear cell), technical replicate 3 gave viability, normalised (%) = 30.4 (active).
For NFATC1 (nuclear factor of activated T cells 1), rucaparib or vehicle Rucaparib, cell line OCI-P5x (serous), technical replicate 1 the deposit lists viability, normalised (%) = 43.8 (active).
NFATC1 (nuclear factor of activated T cells 1), rucaparib or vehicle Rucaparib, cell line OCI-P5x (serous), technical replicate 2 gave viability, normalised (%) = 53.7 (active).
NFATC1 (nuclear factor of activated T cells 1), rucaparib or vehicle Rucaparib, cell line OCI-P5x (serous), technical replicate 3 scored viability, normalised (%) = 55.4 (active).
With NFATC1 (nuclear factor of activated T cells 1), rucaparib or vehicle Vehicle, cell line OCI-C5x (clear cell), technical replicate 1 the deposit lists viability, normalised (%) = 32.8 (active).
NFATC1 (nuclear factor of activated T cells 1), rucaparib or vehicle Vehicle, cell line OCI-C5x (clear cell), technical replicate 2 gave viability, normalised (%) = 22 (active).
NFATC1 (nuclear factor of activated T cells 1), rucaparib or vehicle Vehicle, cell line OCI-C5x (clear cell), technical replicate 3 gave viability, normalised (%) = 42.7 (active).
For NFATC1 (nuclear factor of activated T cells 1), rucaparib or vehicle Vehicle, cell line OCI-P5x (serous), technical replicate 1 the deposit lists viability, normalised (%) = 42.2 (active).
For NFATC1 (nuclear factor of activated T cells 1), rucaparib or vehicle Vehicle, cell line OCI-P5x (serous), technical replicate 2, the values are viability, normalised (%) = 57.2 (active).
NFATC1 (nuclear factor of activated T cells 1), rucaparib or vehicle Vehicle, cell line OCI-P5x (serous), technical replicate 3 scored viability, normalised (%) = 63.5 (active).

Part of the list above in another layout:
NFATC1 (nuclear factor of activated T cells 1), rucaparib or vehicle Vehicle, cell line OCI-C5x (clear cell), technical replicate 2
- viability, normalised (%): 22 (active)

NFATC1 (nuclear factor of activated T cells 1), rucaparib or vehicle Vehicle, cell line OCI-C5x (clear cell), technical replicate 3
- viability, normalised (%): 42.7 (active)

NFATC1 (nuclear factor of activated T cells 1), rucaparib or vehicle Vehicle, cell line OCI-P5x (serous), technical replicate 1
- viability, normalised (%): 42.2 (active)

Further records follow.
With PCK2 (phosphoenolpyruvate carboxykinase 2, mitochondrial), rucaparib or vehicle Rucaparib, cell line OCI-C5x (clear cell), technical replicate 1, the entry reads viability, normalised (%) = 59.9 (active).
For PCK2 (phosphoenolpyruvate carboxykinase 2, mitochondrial), rucaparib or vehicle Rucaparib, cell line OCI-C5x (clear cell), technical replicate 2, the entry reads viability, normalised (%) = 57.1 (active).
PCK2 (phosphoenolpyruvate carboxykinase 2, mitochondrial), rucaparib or vehicle Rucaparib, cell line OCI-C5x (clear cell), technical replicate 3 scored viability, normalised (%) = 70.9 (active).
For PCK2 (phosphoenolpyruvate carboxykinase 2, mitochondrial), rucaparib or vehicle Rucaparib, cell line OCI-P5x (serous), technical replicate 1 the deposit lists viability, normalised (%) = 96.9.
With PCK2 (phosphoenolpyruvate carboxykinase 2, mitochondrial), rucaparib or vehicle Rucaparib, cell line OCI-P5x (serous), technical replicate 2 the deposit lists viability, normalised (%) = 87.6.
PCK2 (phosphoenolpyruvate carboxykinase 2, mitochondrial), rucaparib or vehicle Rucaparib, cell line OCI-P5x (serous), technical replicate 3 gave viability, normalised (%) = 77.4 (active).
PCK2 (phosphoenolpyruvate carboxykinase 2, mitochondrial), rucaparib or vehicle Vehicle, cell line OCI-C5x (clear cell), technical replicate 1 gave viability, normalised (%) = 75.5 (active).
For PCK2 (phosphoenolpyruvate carboxykinase 2, mitochondrial), rucaparib or vehicle Vehicle, cell line OCI-C5x (clear cell), technical replicate 2 the deposit lists viability, normalised (%) = 54.8 (active).
PCK2 (phosphoenolpyruvate carboxykinase 2, mitochondrial), rucaparib or vehicle Vehicle, cell line OCI-C5x (clear cell), technical replicate 3 showed viability, normalised (%) = 58.6 (active).
For PCK2 (phosphoenolpyruvate carboxykinase 2, mitochondrial), rucaparib or vehicle Vehicle, cell line OCI-P5x (serous), technical replicate 1 the deposit lists viability, normalised (%) = 100.
PCK2 (phosphoenolpyruvate carboxykinase 2, mitochondrial), rucaparib or vehicle Vehicle, cell line OCI-P5x (serous), technical replicate 2 gave viability, normalised (%) = 97.1.
For PCK2 (phosphoenolpyruvate carboxykinase 2, mitochondrial), rucaparib or vehicle Vehicle, cell line OCI-P5x (serous), technical replicate 3, the entry reads viability, normalised (%) = 78.6 (active).
With SMYD5 (SMYD family member 5), rucaparib or vehicle Rucaparib, cell line OCI-C5x (clear cell), technical replicate 1, the entry reads viability, normalised (%) = 55.4 (active).
For SMYD5 (SMYD family member 5), rucaparib or vehicle Rucaparib, cell line OCI-C5x (clear cell), technical replicate 2, the values are viability, normalised (%) = 37.7 (active).
For SMYD5 (SMYD family member 5), rucaparib or vehicle Rucaparib, cell line OCI-C5x (clear cell), technical replicate 3 the deposit lists viability, normalised (%) = 51.3 (active).
SMYD5 (SMYD family member 5), rucaparib or vehicle Rucaparib, cell line OCI-P5x (serous), technical replicate 1 scored viability, normalised (%) = 61.8 (active).
With SMYD5 (SMYD family member 5), rucaparib or vehicle Rucaparib, cell line OCI-P5x (serous), technical replicate 2 the deposit lists viability, normalised (%) = 64.3 (active).
For SMYD5 (SMYD family member 5), rucaparib or vehicle Rucaparib, cell line OCI-P5x (serous), technical replicate 3, the entry reads viability, normalised (%) = 71.6 (active).
SMYD5 (SMYD family member 5), rucaparib or vehicle Vehicle, cell line OCI-C5x (clear cell), technical replicate 1 showed viability, normalised (%) = 56.9 (active).
With SMYD5 (SMYD family member 5), rucaparib or vehicle Vehicle, cell line OCI-C5x (clear cell), technical replicate 2 the deposit lists viability, normalised (%) = 38.2 (active).
For SMYD5 (SMYD family member 5), rucaparib or vehicle Vehicle, cell line OCI-C5x (clear cell), technical replicate 3, the entry reads viability, normalised (%) = 60.9 (active).
SMYD5 (SMYD family member 5), rucaparib or vehicle Vehicle, cell line OCI-P5x (serous), technical replicate 1 scored viability, normalised (%) = 71 (active).
For SMYD5 (SMYD family member 5), rucaparib or vehicle Vehicle, cell line OCI-P5x (serous), technical replicate 2 the deposit lists viability, normalised (%) = 72.9 (active).
SMYD5 (SMYD family member 5), rucaparib or vehicle Vehicle, cell line OCI-P5x (serous), technical replicate 3 gave viability, normalised (%) = 72.2 (active).
